Patent US20090149482A1, “STEREOCHEMICALLY DEFINED DIPEPTIDE ESTERS OF ANTIVIRAL AGENTS FOR ENHANCED OCULAR TREATMENT” (priority 2001, published 2009)

Biological target: T1, hPEPT1 (Homo sapiens, UniProt P46059)
T1 construct: endogenous in cells; host or cells: Caco-2 (human colon carcinoma, ATCC)
T1 sequence (P46059 1-708): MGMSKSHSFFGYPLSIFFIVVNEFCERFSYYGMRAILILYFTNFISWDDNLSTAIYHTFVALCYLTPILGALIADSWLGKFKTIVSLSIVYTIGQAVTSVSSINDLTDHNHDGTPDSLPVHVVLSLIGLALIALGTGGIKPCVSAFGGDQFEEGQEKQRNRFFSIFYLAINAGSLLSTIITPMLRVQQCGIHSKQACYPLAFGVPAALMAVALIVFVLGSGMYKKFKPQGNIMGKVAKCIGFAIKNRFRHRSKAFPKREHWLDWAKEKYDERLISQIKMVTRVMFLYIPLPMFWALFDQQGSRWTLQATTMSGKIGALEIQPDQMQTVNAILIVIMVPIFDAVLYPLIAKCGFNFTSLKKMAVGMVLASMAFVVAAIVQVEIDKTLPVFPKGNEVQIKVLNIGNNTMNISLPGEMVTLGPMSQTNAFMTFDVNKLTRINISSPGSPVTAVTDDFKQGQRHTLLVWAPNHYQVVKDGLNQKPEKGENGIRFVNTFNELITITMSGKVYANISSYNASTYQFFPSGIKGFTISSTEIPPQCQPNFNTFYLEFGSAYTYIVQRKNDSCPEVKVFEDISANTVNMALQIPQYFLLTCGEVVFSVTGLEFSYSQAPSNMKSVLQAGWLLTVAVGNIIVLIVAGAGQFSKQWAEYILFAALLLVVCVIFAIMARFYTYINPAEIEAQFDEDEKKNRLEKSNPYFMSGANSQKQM
Assay: [3H] Glycylsarcosine uptake and its inhibition in Caco-2 cells (affinity towards peptide transporter)
Assay type: cell-based
Conditions: Gly-Sar with drug (10 mM), Lineweaver-Burk
From the text: Materials: [^3H] Glycylsarcosine (Gly-Sar; 4 Ci/mmol) was purchased from Moravek Biochemicals (Brea, Calif.) and [^14C] Mannitol (50 mCi/mmol) was supplied by Amersham (Piscataway, N.J.). Human colon carcinoma derived Caco-2 cells were obtained from American Type Culture Collection (ATCC, Rockville, Md.). The growth medium, Dulbecco's modified Eagle Medium was obtained from Life Technologies (Grand Island, N.Y.). […] Fetal bovine serum (FBS) was purchased from JRH Biosciences (Lenexa, Kans.). Culture flasks (75 cm^2 growth area), polyester Transwells® (pore size 0.4 Cm with diameter 6.5 mm) and polyester membranes (pore size 0.4 Cm) were procured from Costar (Bedford, Mass.). The buffer components and solvents were obtained from Fisher Scientific (St. Louis, Mo.). All the di-peptide esters of acyclovir were custom synthesized in our laboratory. […] Cell Culture: All cultures were maintained in humidified incubator at 37° C. with a 5% carbon dioxide in air atmosphere. […] The protein content of the cell suspension was determined by the method of Bradford using bovine serum albumin as the standard (BioRad protein estimation kit, Hercules, Calif.). […] The samples were stored at −80° C. until analyzed HPLC. […] The amount of protein in the cell lysate was measured by the BioRad protein estimation kit using bovine serum albumin as standard (BioRad Protein estimation Kit, Hercules, Calif.). […]

Vmax of Gly-Sar uptake in presence of the drug: 0.101 ± 0.03 µmol/min/mg
SMILES: CC1=C(C(=O)O)N2C(=O)[C@@H](NC(=O)[C@H](N)c3ccccc3)[C@H]2SC1 [Cephalexin, cephalexin, reference compound]
